# Reference: PMC5228053
# Protein sequences, listed by entry. Tags and fused reporters are not part of them.
# UniProt P14618: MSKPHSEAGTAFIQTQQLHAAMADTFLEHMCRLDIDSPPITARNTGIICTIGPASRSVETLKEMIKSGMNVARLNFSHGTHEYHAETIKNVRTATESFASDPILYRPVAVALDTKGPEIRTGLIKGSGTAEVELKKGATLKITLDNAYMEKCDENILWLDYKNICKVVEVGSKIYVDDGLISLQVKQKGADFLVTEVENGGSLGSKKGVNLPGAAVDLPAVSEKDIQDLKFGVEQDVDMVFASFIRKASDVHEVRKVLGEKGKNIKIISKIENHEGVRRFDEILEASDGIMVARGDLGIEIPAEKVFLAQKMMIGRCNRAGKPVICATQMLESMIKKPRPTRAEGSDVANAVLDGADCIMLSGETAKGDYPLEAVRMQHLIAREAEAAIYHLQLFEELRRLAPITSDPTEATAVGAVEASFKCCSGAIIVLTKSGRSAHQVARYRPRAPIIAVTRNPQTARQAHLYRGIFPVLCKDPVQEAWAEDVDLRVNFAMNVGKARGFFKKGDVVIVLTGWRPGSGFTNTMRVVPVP
# These are yes or no findings as the source states them, for the method shown. In cells and extracts the contact can be indirect. Some results given as binding are weak or reduced against the parent protein; the word gives no strength.
# B1: synaptosome-associated protein 23 (SNAP-23) (protein, UniProt O00161 1-211)
# chain: MDNLSSEEIQQRAHQITDESLESTRRILGLAIESQDAGIKTITMLDEQKEQLNRIEEGLDQINKDMRETEKTLTELNKCCGLCVCPCNRTKNFESGKAYKTTWGDGGENSPCNVVSKQPGPVTNGQLQQPTTGAASGGYIKRITNDAREDEMEENLTQVGSILGNLKDMALNIGNEIDAQNPQIKRITDKADTNRDRIDIANARAKKLIDS
# Target: pyruvate kinase type M2 (PKM2) (human (endogenous in A549)) (UniProt P14618)
# Experiment: co-IP; endogenous proteins; A549 cell lysate pre-cleared with control IgG (legend: isolated exosome fraction from A549 cells); IP with anti-SNAP-23 or anti-PKM2 antibody or normal IgG, protein G-agarose; lysis buffer 20 mM Tris-HCl, 150 mM NaCl, 0.5% Nonidet P-40, 2 mM EDTA, 0.5 mM DTT, pH 7.4; blotted in a cross manner
binder,measurement,value
B1,binding,binds
